The list shows only some results of the screen, not a fair sample: it gathers tests that were run many times, whatever their T/C, doses with no T/C, and many T/C values between a quarter and a half above the control. Other doses and runs of a compound stand elsewhere. T/C is the treated group as % of the vehicle group. Some doses have a count of surviving animals in place of a T/C: the source holds a T/C of zero for them, seemingly a mark for toxic or unscored doses. Some doses without a T/C left all or most animals alive at the check, yet need not have been tolerated: survival well below the control is almost never listed, so the zero probably covers shortened survival too. Survivors were counted at the toxicity check, usually on the fifth day, unless a day is given; later deaths do not show. Schedule codes are those of the source, read here as Q, the interval in days (D) or hours (H), X, the number of doses. Some schedules carry Z or #; the key to these is not given. Some doses were run more than once; the values are given in rising order. Where survival is the endpoint, this PubChem deposit counts one and a half times the control or more as active, and values a quarter to a half above the control carry no call in these data; other NCI protocols may use other cut-offs. Counts like (3×) say how often a value occurs here. Some T/C values are followed by the survivors on the day toxicity was checked, most often the fifth; where none is given, no animal had died by that day.
Test system: L1210 leukemia ip in BDF1 mice, survival T/C
Test: NCI In Vivo Anticancer Drug Screen. Data for tumor model L1210 Leukemia (intraperitoneal) in B6D2F1 (BDF1) mice
Details: T/C endpoint: mean survival time, higher T/C = longer survival
[1] = dose: 200.0 mg/kg/injection, schedule: Q04DX003 (ip), vehicle: saline

SMILES: CCN(CC)CCNc1ccc(C)c2sc3ccccc3c(=O)c12
- survivor count (dose: 6.25 mg/kg/injection, schedule: Q01DX Z (ip), vehicle: methylcellulose (MC)): 6 of 6
- T/C (dose: 12.5 mg/kg/injection, schedule: Q01DX009 (ip), vehicle: saline): 106, 109, 115, 118 % of control
- survivor count (dose: 12.5 mg/kg/injection, schedule: Q01DX Z (ip), vehicle: methylcellulose (MC)): 6 of 6
- survivor count (dose: 24.0 mg/kg/injection, schedule: Q01DX006 (iv), vehicle: saline): 3 of 6
- T/C (dose: 25.0 mg/kg/injection, schedule: Q01DX009 (ip), vehicle: saline): 106 (2×), 109, 122 [5 of 6 alive], 124, 148 % of control
- survivor count (dose: 25.0 mg/kg/injection, schedule: Q01DX Z (ip), vehicle: methylcellulose (MC)): 0 of 6 and 6 of 6
- T/C (dose: 30.0 mg/kg/injection, schedule: Q01DX Z (oral), vehicle: carboxymethylcellulose (CMC)): 127 % of control
- survivor count (dose: 48.0 mg/kg/injection, schedule: Q01DX006 (iv), vehicle: saline): 0 of 6
- T/C (dose: 48.0 mg/kg/injection, schedule: Q01DX Z (ip), vehicle: saline): 129 % of control
- T/C (dose: 50.0 mg/kg/injection, schedule: Q01DX005 (ip), vehicle: Klucel (hydroxypropylcellulose) (HPC)): 126 % of control
- T/C (dose: 50.0 mg/kg/injection, schedule: Q01DX009 (ip), vehicle: saline): 107, 121, 130, 132, 140, 143 % of control [5 of 6 alive]
- T/C (dose: 50.0 mg/kg/injection, schedule: Q01DX010 (ip), vehicle: saline): 136 % of control (2×)
- survivor count (dose: 50.0 mg/kg/injection, schedule: Q01DX Z (ip), vehicle: methylcellulose (MC)): 0 of 6 and 6 of 6
- T/C (dose: 50.0 mg/kg/injection, schedule: Q01DX Z (oral), vehicle: carboxymethylcellulose (CMC)): 143 % of control
- T/C (dose: 50.0 mg/kg/injection, schedule: Q01DX Z (oral), vehicle: saline): 125 % of control
- survivor count (dose: 50.0 mg/kg/injection, schedule: Q04DX003 (ip), vehicle: saline): 6 of 6
- T/C (dose: 60.0 mg/kg/injection, schedule: Q01DX Z (ip), vehicle: carboxymethylcellulose (CMC)): 134 % of control
- T/C (dose: 64.7 mg/kg/injection, schedule: Q01DX Z (ip), vehicle: carboxymethylcellulose (CMC)): 137, 141, 147 % of control
- T/C (dose: 80.0 mg/kg/injection, schedule: Q01DX Z (ip), vehicle: carboxymethylcellulose (CMC)): 132 and 139 % of control
- T/C (dose: 87.0 mg/kg/injection, schedule: Q01DX Z (ip), vehicle: methylcellulose (MC)): 147 % of control
- T/C (dose: 90.0 mg/kg/injection, schedule: Q01DX Z (ip), vehicle: carboxymethylcellulose (CMC)): 134 % of control [5 of 6 alive]
- T/C (dose: 90.0 mg/kg/injection, schedule: Q01DX Z (ip), vehicle: other): 147 % of control
- survivor count (dose: 96.0 mg/kg/injection, schedule: Q01DX006 (iv), vehicle: saline): 0 of 6
- T/C (dose: 96.0 mg/kg/injection, schedule: Q01DX Z (sc), vehicle: carboxymethylcellulose (CMC)): 141 % of control
- T/C (dose: 100.0 mg/kg/injection, schedule: Q01DX005 (ip), vehicle: Klucel (hydroxypropylcellulose) (HPC)): 133 and 147 % of control
- T/C (dose: 100.0 mg/kg/injection, schedule: Q01DX009 (ip), vehicle: saline): 89, 91 [5 of 6 alive], 131 [5 of 6 alive], 144, 155, 161 % of control
- T/C (dose: 100.0 mg/kg/injection, schedule: Q01DX Z (ip), vehicle: carboxymethylcellulose (CMC)): 138 % of control
- survivor count (dose: 100.0 mg/kg/injection, schedule: Q01DX Z (ip), vehicle: methylcellulose (MC)): 0 of 6
- T/C (dose: 100.0 mg/kg/injection, schedule: Q01DX Z (oral), vehicle: saline): 143 % of control
- T/C (dose: 100.0 mg/kg/injection, schedule: Q04DX003 (ip), vehicle: Klucel (hydroxypropylcellulose) (HPC)): 134 and 138 % of control
- T/C (dose: 100.0 mg/kg/injection, schedule: Q04DX003 (ip), vehicle: water): 140 % of control
- T/C (dose: 107.05 mg/kg/injection, schedule: Q01DX Z (ip), vehicle: carboxymethylcellulose (CMC)): 125 % of control
- T/C (dose: 130.0 mg/kg/injection, schedule: Q01DX Z (ip), vehicle: methylcellulose (MC)): 131 % of control
- T/C (dose: 140.0 mg/kg/injection, schedule: Q01DX Z (im), vehicle: carboxymethylcellulose (CMC)): 132 % of control
- survivor count (dose: 140.0 mg/kg/injection, schedule: Q01DX Z (ip), vehicle: carboxymethylcellulose (CMC)): 6 of 6
- survivor count (dose: 200.0 mg/kg/injection, schedule: Q01DX Z (ip), vehicle: carboxymethylcellulose (CMC)): 5 of 6
- T/C [1]: 126 % of control
- T/C (dose: 200.0 mg/kg/injection, schedule: Q04DX003 (ip), vehicle: water): 137 % of control
- survivor count (dose: 215.0 mg/kg/injection, schedule: Q01DX Z (ip), vehicle: carboxymethylcellulose (CMC)): 6 of 6
- survivor count (dose: 270.0 mg/kg/injection, schedule: Q01DX Z (ip), vehicle: other): 3 of 6
- T/C (dose: 300.0 mg/kg/injection, schedule: Q01DX001 (ip), vehicle: Klucel (hydroxypropylcellulose) (HPC)): 145 % of control
- T/C (dose: 300.0 mg/kg/injection, schedule: Q01DX001 (ip), vehicle: saline): 136 % of control [5 of 6 alive]
- survivor count (dose: 320.0 mg/kg/injection, schedule: Q01DX Z (ip), vehicle: carboxymethylcellulose (CMC)): 1 of 6
- survivor count (dose: 320.0 mg/kg/injection, schedule: Q01DX Z (sc), vehicle: carboxymethylcellulose (CMC)): 6 of 6
- survivor count (dose: 330.0 mg/kg/injection, schedule: Q01DX001 (ip), vehicle: water): 0 of 6
- survivor count (dose: 400.0 mg/kg/injection, schedule: Q01DX Z (oral), vehicle: saline): 6 of 6
- survivor count (dose: 480.0 mg/kg/injection, schedule: Q01DX Z (sc), vehicle: carboxymethylcellulose (CMC)): 6 of 6
- survivor count (dose: 495.0 mg/kg/injection, schedule: Q01DX001 (ip), vehicle: water): 0 of 6
- survivor count (dose: 600.0 mg/kg/injection, schedule: Q01DX001 (ip), vehicle: Klucel (hydroxypropylcellulose) (HPC)): 0 of 6
- survivor count (dose: 600.0 mg/kg/injection, schedule: Q01DX001 (ip), vehicle: saline): 3 of 6
- survivor count (dose: 600.0 mg/kg/injection, schedule: Q01DX001 (ip), vehicle: water): 1 of 6
- survivor count (dose: 742.0 mg/kg/injection, schedule: Q01DX001 (ip), vehicle: water): 0 of 6

SMILES: CCCOC(C(=O)OC1CCN(C)CC1)(c1ccccc1)c1ccccc1
- survivor count (dose: 100.0 mg/kg/injection, schedule: Q04DX003 (ip), vehicle: saline): 3 of 6
- survivor count [1]: 0 of 6
- survivor count (dose: 400.0 mg/kg/injection, schedule: Q04DX003 (ip), vehicle: saline): 0 of 6

SMILES: Cc1cc(C)c(-n2c(C)nc3ccccc3c2=O)c([N+](=O)[O-])c1
- survivor count (dose: 200.0 mg/kg/injection, schedule: Q01DX009 (ip), vehicle: Klucel (hydroxypropylcellulose) (HPC)): 0 of 6
- survivor count (dose: 400.0 mg/kg/injection, schedule: Q01DX009 (ip), vehicle: Klucel (hydroxypropylcellulose) (HPC)): 0 of 6

SMILES: O=C(NC(=O)C(Cl)Cl)Nc1cccc2c1Cc1ccccc1-2
- survivor count (dose: 200.0 mg/kg/injection, schedule: Q04DX003 (ip), vehicle: Klucel (hydroxypropylcellulose) (HPC)): 6 of 6

From PubChem BioAssay AID248 (DTP/NCI, 2004)
